# Assay results from patent publication US11634396B2 (priority 2021, dated 2023).
# Chains of the proteins cited; added tags and fusions are not shown.
# UniProt P35372, whole entry: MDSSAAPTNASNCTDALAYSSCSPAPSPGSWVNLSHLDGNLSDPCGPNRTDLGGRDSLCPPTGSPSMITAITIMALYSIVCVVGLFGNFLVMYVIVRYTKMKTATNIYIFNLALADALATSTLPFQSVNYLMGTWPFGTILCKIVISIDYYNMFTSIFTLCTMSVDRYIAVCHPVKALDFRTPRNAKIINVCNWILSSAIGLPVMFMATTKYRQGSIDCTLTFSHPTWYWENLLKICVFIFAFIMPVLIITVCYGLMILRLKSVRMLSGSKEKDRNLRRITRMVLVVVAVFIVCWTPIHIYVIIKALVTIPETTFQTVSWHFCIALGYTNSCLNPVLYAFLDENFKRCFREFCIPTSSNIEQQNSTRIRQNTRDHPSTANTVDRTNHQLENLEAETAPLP
# At least one compound was matched to its structure with a doubt left.
# Target: human mOR (Homo sapiens (Human), UniProt P35372)
# Format: cell-based
# Conditions: CHO Tag-lite human mOR stable cell line; forskolin 4 μM and DAMGO at EC90; read-out: mOR cAMP Antagonist Assay IC50
# Procedure: CHO Tag-lite human mOR stable cell line from Cisbio (NCBI accession number: NM_000914.3, Bedford, Mass.) were seeded and grown to approximately 80% confluence in Ham F-12 with 10% FBS, 50 U/ml penicillin, 50 μg/ml streptomycin, 2 mM Hepes, and 1 mg/ml geneticin (Invitrogen, Carlsbad, Calif.). Cells were then harvested using accutase (Corning. Coming, N.Y.), centrifuged at 1300 RPM for 5 min, and plated at 5000 cells per 5 μL per well in a 5× dilution of stimulation buffer consisting of the HTRF cAMP Gi kit, water and IBMX at 0.5 mM (Cisbio, Bedford, Mass.) in white HTRF low volume 384 well plates (Cisbio, Bedford, Mass.). Plates were then incubated at 37° C. in 5% CO2 for 10 minutes. For the agonist assay, forskolin was added to a final concentration of 4 μM. […] Test compounds were dissolved in DMSO and water, and then serially diluted to working concentrations such that the concentration of DMSO was less than 0.1%. Diluted test compounds were added at 2.5 μL per well, and plates were incubated at 37° C., and 5% CO2 for 15 minutes, and then at room temperature for 15 minutes. Next 5 μl/well of cAMP Eu-cryptate and 5 μl/well of anti-cAMP-d2 (both diluted 1:20 in lysis buffer) were added, and plates were incubated at room temperature for 1 hour. Following incubation, plates were read in a Synergy Neo2 multi-mode reader (Biotek, Winooski, Vt.). […] For the agonist assay, data was normalized using the maximal DAMGO response. Measurements were performed in triplicate and the dose response was fit using nonlinear regression.
row,SMILES,IC50 [nM]
1,"Cc1ncc([C@@H](CC(=O)NC[C@H](C(C)c2ccc3[nH]ncc3c2)N(C)C)C2(C(F)(F)F)CC2)cn1 (stereo partly drawn) [Compound 229, (3R)-N-((2S)-2-(dimethylamino)-3-(1H-indazol-5-yl)butyl)-3-(2-methylpyrimidin-5-yl)-3-(1-(trifluoromethyl)cyclopropyl)propanamide]",< 300
2,"CN(C)[C@H](CNC(=O)C[C@H](c1cccnc1)C1(C(F)(F)F)CC1)Cc1ccc2[nH]c(=O)ccc2c1 [Compound 102, (R)-N-((S)-2-(dimethylamino)-3-(2-oxo-1,2-dihydroquinolin-6-yl)propyl)-3-(pyridin-3-yl)-3-(1-(trifluoromethyl)cyclopropyl) propanamide]",> 3000
3,CN(C)[C@H](CNC(=O)C[C@@H](c1ccncc1)C1(C(F)(F)F)CC1)Cc1ccc2[nH]ncc2c1 [Compound 210],< 300
